Record: PubChem BioAssay AID1224830 (NIAID, 2016)
Shown is an unselected part of about 18,000 reagents. Over the whole deposit, about 2,900 (16%) are marked active. 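Calls are made per well; low scores hint the gene aids the LPS response, high scores that it dampens it.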 Repeated entries: four replicate wells of each siRNA pool.

Purpose: 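Host factors that control LPS-induced TNF expression in human macrophages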 (primary screen)
Cell system: human THP-1 monocytic leukaemia cells, TNF dual-luciferase reporter clone, PMA-differentiated to macrophage-like cells
Knock-down reagent: siRNA pool against human genes, 50 nM
Time to read-out: LPS for 4 h, given about 3 days after siRNA transfection
Treatment: bacterial LPS (TLR4 ligand), 10 ng/ml
Measurement: 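Ratio of firefly to renilla light, scaled to the plate median and expressed as a robust z-score per replicate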
Direction: TNF reporter robust z-score: higher = stronger TNF reporter response to LPS
Active means: 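Each well counts as active if its z-score is over 2.8 or under -1.5; controls are left without a call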

| target gene | TNF reporter robust z-score | call |
| --- | --- | --- |
| GNRH2 | -1.04 | inactive |
| GNRH2 | -1.4 | inactive |
| GNRH2 | -0.13 | inactive |
| GNRH2 | -1.22 | inactive |
| OOSP2 | -0.26 | inactive |
| OOSP2 | 0.37 | inactive |
| OOSP2 | 0.72 | inactive |
| OOSP2 | -0.66 | inactive |
| KIAA1217 | 2.63 | inactive |
| KIAA1217 | 4.54 | active |
| KIAA1217 | -0.12 | inactive |
| KIAA1217 | 0.46 | inactive |
| XIAP | -0.74 | inactive |
| XIAP | -0.98 | inactive |
| XIAP | 0.03 | inactive |
| XIAP | 1.87 | inactive |
| PSPH | -0.39 | inactive |
| PSPH | -0.94 | inactive |
| PSPH | -0.42 | inactive |
| PSPH | -0.61 | inactive |
| MORN1 | -0.08 | inactive |
| MORN1 | -0.22 | inactive |
| MORN1 | -0.38 | inactive |
| MORN1 | 0.82 | inactive |
| PML | 1.67 | inactive |
| PML | 4.29 | active |
| PML | 1.44 | inactive |
| PML | 3.42 | active |
| CYP3A5 | -1.4 | inactive |
| CYP3A5 | -1.02 | inactive |
| CYP3A5 | -1.19 | inactive |

7 of these entries, reformatted:
XIAP: TNF reporter robust z-score = 0.03; call = inactive
XIAP: TNF reporter robust z-score = 1.87; call = inactive
PSPH: TNF reporter robust z-score = -0.39; call = inactive
PSPH: TNF reporter robust z-score = -0.94; call = inactive
PSPH: TNF reporter robust z-score = -0.42; call = inactive
PSPH: TNF reporter robust z-score = -0.61; call = inactive
MORN1: TNF reporter robust z-score = -0.08; call = inactive

The results go on.
| target gene | TNF reporter robust z-score | call |
| --- | --- | --- |
| C1orf50 | -1.58 | active |
| C1orf50 | -1.62 | active |
| C1orf50 | -1.53 | active |
| C1orf50 | -0.84 | inactive |
| PELI1 | -1.01 | inactive |
| PELI1 | -0.73 | inactive |
| PELI1 | -0.57 | inactive |
| PELI1 | 0.04 | inactive |
| DAB2IP | -1.06 | inactive |
| DAB2IP | -0.34 | inactive |
| DAB2IP | 0.98 | inactive |
| DAB2IP | -0.13 | inactive |
| TIGD4 | -1.4 | inactive |
| TIGD4 | -1.17 | inactive |
| TIGD4 | -1.31 | inactive |
| TIGD4 | -0.95 | inactive |
